Source: US20130058960A1 (Genentech, published 2013)
Results are given in words; binding and its absence hold for the method and conditions named. Some entries that bind do so weakly or less than the wild type.

Columns and labels:
[1] = target: T1, TAT425 polypeptide (Homo sapiens (Human)) (UniProt O15439); assay: competitive binding experiment, details not given
T1 sequence: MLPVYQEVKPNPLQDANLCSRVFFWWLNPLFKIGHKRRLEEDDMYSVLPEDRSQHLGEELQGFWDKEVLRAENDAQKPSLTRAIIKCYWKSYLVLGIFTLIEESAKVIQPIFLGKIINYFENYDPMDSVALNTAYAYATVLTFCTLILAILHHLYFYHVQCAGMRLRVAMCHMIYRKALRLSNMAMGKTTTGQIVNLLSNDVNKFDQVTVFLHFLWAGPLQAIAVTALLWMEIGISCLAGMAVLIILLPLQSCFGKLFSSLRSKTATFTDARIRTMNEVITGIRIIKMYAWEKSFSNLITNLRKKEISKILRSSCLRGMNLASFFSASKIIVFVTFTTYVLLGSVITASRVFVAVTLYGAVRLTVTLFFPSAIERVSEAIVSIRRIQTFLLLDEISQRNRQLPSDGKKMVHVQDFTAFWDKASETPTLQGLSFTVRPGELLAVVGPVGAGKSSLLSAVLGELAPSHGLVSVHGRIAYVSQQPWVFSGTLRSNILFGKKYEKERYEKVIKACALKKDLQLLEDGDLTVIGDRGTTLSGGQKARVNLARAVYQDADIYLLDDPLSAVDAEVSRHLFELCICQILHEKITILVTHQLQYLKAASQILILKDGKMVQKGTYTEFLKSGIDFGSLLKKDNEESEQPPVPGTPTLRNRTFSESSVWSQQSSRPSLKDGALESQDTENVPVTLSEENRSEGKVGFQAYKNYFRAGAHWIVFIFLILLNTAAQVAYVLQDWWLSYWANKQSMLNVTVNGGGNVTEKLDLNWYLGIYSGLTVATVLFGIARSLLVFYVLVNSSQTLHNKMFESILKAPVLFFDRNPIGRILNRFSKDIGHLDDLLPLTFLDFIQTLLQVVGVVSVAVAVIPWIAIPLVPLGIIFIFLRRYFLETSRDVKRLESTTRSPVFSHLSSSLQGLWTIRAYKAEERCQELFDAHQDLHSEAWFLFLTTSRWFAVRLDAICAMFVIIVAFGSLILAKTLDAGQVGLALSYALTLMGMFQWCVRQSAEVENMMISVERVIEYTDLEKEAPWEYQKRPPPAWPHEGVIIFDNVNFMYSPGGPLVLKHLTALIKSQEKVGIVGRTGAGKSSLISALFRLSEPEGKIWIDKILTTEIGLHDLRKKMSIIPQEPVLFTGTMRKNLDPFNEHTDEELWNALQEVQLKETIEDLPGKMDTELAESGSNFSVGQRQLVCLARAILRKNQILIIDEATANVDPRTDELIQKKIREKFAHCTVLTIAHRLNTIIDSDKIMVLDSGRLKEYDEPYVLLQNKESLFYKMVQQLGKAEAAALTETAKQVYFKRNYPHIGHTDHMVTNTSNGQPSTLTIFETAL

[2] = target: T1, TAT425 polypeptide (Homo sapiens (Human)); assay: Western blot, ELISA, FACS and/or immunohistochemistry on cells expressing TAT425

B1: anti-TAT425 monoclonal antibody 4D11.17.2 (antibody, V domains shown)
VH: EVQLQQSGPELVKPGASVKMSCKASGYTFTDYYMKWVKQSLGEGLEWIGDINPYNGDTFYNKKFKGKASLTVDKSSTTAYMDLNSLTSEDSAVYFCARLGEMAYFDYWGQGTSLTVSS
VL: DVLMTQTPLSLPVSLGDQASISCRSSQSIVHSNGNTYLDWYLQKPGQSPKLLIYKVSNRFSGVPDRFSGSGSGTDFTLKISRVEAEDLGVYYCFQGSHVPWTFGGGTKLEIKR
- binding [1]: binds
- binding [2]: binds
